The values that follow come from doi:10.1101/2021.12.07.471565.

These are yes or no findings as the source states them, for the method shown. In cells and extracts the contact can be indirect. Some entries that bind do so weakly or less than the wild type. Tags and fused reporters may be left off the sequences shown.

Experiment in all cases: split reporter
The target of assay [1] is T1, Arabidopsis thaliana REGULATOR OF G … 1 protein (AtRGS1), split-luciferase fusion (Arabidopsis thaliana) (UniProt Q8H1F2).
T1 sequence: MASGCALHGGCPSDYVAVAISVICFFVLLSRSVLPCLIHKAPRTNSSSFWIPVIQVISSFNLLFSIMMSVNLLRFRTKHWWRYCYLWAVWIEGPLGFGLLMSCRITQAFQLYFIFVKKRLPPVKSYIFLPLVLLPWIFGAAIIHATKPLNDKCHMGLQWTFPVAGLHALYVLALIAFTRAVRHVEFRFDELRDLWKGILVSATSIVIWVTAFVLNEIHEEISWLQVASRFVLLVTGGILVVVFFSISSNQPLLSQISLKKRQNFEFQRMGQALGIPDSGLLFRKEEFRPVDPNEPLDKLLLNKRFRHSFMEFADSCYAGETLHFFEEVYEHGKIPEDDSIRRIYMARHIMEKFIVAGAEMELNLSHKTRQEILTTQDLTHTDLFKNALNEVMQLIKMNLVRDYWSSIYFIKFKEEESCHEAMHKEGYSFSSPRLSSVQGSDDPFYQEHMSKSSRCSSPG

Assay [2] concerns the target T2, AGB1/AGG1 (Gβγ): AtAGB1-nLUC co-expressed with mCherry-AtAGG1 (Arabidopsis thaliana) (UniProt P49177+Q9FDX9).
T2 sequence 1: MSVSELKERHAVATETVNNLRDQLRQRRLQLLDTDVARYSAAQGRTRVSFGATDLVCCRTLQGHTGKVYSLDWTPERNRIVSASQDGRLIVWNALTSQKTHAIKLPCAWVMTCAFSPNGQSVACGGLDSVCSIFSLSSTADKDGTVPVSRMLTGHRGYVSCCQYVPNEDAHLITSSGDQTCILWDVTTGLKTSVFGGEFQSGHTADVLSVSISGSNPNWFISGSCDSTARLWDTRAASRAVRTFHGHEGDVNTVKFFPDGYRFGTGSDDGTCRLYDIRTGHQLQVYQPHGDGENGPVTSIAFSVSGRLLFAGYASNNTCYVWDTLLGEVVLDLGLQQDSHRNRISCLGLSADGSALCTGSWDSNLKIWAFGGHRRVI
T2 sequence 2: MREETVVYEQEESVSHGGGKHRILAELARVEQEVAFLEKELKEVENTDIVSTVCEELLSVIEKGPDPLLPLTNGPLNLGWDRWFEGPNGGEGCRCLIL

The target of assay [3] is T3, AGB1, Gβ subunit, nLUC fusion, expressed without AGG1 (Arabidopsis thaliana), P49177.
T3 chain: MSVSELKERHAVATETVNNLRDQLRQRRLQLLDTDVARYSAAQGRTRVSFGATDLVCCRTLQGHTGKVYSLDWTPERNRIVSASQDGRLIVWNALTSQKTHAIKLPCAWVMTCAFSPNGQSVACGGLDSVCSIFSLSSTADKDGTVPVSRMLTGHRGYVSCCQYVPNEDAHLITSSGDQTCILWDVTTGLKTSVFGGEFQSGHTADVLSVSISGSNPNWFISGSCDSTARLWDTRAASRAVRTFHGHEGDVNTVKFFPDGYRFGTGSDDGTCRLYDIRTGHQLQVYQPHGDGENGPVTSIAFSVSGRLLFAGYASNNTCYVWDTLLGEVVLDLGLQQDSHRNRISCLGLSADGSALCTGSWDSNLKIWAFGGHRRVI
As to conditions: remark: other sources report otherwise.

B1: ATBα, PROTEIN PHOSPHATASE 2A (PP2A) regulatory B subunit, alpha isoform, nLUC fusion (protein, UniProt Q38821 1-513)
chain: MNGGDEVVAASADPSLPLEWRFSQVFGERSAGEEVQEVDIISAIEFDNSGNHLATGDRGGRVVLFERTDTNNSSGTRRELEEADYPLRHPEFRYKTEFQSHDPEFDYLKSLEIEEKINKIRWCQTANGALFLLSTNDKTIKFWKVQDKKIKKICDMNSDPSRTVGNGTVASSSNSNITNSCLVNGGVSEVNNSLCNDFSLPAGGISSLRLPVVVTSHESSPVARCRRVYAHAHDYHINSISNNSDGETFISADDLRINLWNLEISNQSFNIVDVKPAKMEDLSEVITSAEFHPTHCNMLAYSSSKGSIRLIDLRQSALCDSHSKLFEEPEQAGPKSFFTEIIASVSDIKFAKEGRYLLSRDYMTLKLWDINMDAGPVATFQVHEYLKPKLCDLYENDSIFDKFECCISGNGLRAATGSYSNLFRVFGVAPGSTETATLEASRNPMRRHVPIPSRPSRALSSITRVVSRGSESPGVDGNTNALDYTTKLLHLAWHPNENSIACAAANSLYMYYA
In the case of B1, the binding entry in assay [1] is given as “binds”.

B2: AtGPA1, canonical Gα subunit, cLUC fusion (protein, UniProt P18064 1-383)
chain: MGLLCSRSRHHTEDTDENTQAAEIERRIEQEAKAEKHIRKLLLLGAGESGKSTIFKQIKLLFQTGFDEGELKSYVPVIHANVYQTIKLLHDGTKEFAQNETDSAKYMLSSESIAIGEKLSEIGGRLDYPRLTKDIAEGIETLWKDPAIQETCARGNELQVPDCTKYLMENLKRLSDINYIPTKEDVLYARVRTTGVVEIQFSPVGENKKSGEVYRLFDVGGQRNERRKWIHLFEGVTAVIFCAAISEYDQTLFEDEQKNRMMETKELFDWVLKQPCFEKTSFMLFLNKFDIFEKKVLDVPLNVCEWFRDYQPVSSGKQEIEHAYEFVKKKFEELYYQNTAPDRVDRVFKIYRTTALDQKLVKKTFKLVDETLRRRNLLEAGLL
For B2, in assay [2], the binding entry is “binds”.

B3: AtGPA1, canonical Gα subunit, cLUC fusion, P18064 1-383 (protein)
chain: MGLLCSRSRHHTEDTDENTQAAEIERRIEQEAKAEKHIRKLLLLGAGESGKSTIFKQIKLLFQTGFDEGELKSYVPVIHANVYQTIKLLHDGTKEFAQNETDSAKYMLSSESIAIGEKLSEIGGRLDYPRLTKDIAEGIETLWKDPAIQETCARGNELQVPDCTKYLMENLKRLSDINYIPTKEDVLYARVRTTGVVEIQFSPVGENKKSGEVYRLFDVGGQRNERRKWIHLFEGVTAVIFCAAISEYDQTLFEDEQKNRMMETKELFDWVLKQPCFEKTSFMLFLNKFDIFEKKVLDVPLNVCEWFRDYQPVSSGKQEIEHAYEFVKKKFEELYYQNTAPDRVDRVFKIYRTTALDQKLVKKTFKLVDETLRRRNLLEAGLL
Regarding B3, the binding result in assay [3] is “no binding”.

B4: ATBβ, PP2A regulatory B subunit, beta isoform, nLUC fusion (protein, UniProt Q39247 1-501)
chain: MNGGDDAATSGPPPSLEWRFSQVFGERTAGEEVQEVDIISAIEFDKSGDHLATGDRGGRVVLFERTDTKDHGGSRKDLEQTDYPVRHPEFRYKTEFQSHEPEFDYLKSLEIEEKINKIRWCQPANGALFLLSTNDKTIKYWKVQEKKIKKISEMNIDPSESSNIPPQLVTNGLPADKGHDYLSKDFSFPPGGIPSLRLPVVVTSQETNLVARCRRVYAHAHDYHINSISNSSDGETFISADDLRVNLWNLEISNQSFNIVDVKPTNMEDLTEVITSAEFHPIHCNMLAYSSSKGSIRLIDMRQSALCDSHTKLFEEPEAPGSRSFFTEIIASISDIKFSKDGRYILSRDYMTLKLWDINMDSGPVASYQVHEHLRPRLCDLYENDSIFDKFECCLSGDGLRVATGSYSNLFRVFGASQGSTEAATLEASKNPMRRQIQTPARPSRSIGSMTRVVRRGSESPGTEANGNAYDFTTKLLHMAWHPTENSIACAAANSLYMYYA
Take B4: in assay [1], the binding result is listed as “no binding”.
